Data source: PubChem BioAssay AID686938 (Drosophila RNAi Screening Center, 2013)
The deposit covers about 23,000 reagents; shown is an unselected part of those that have a named target and a result. In the full data, 75 (0.33%) are marked active. 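Raw plate signals without normalisation; calls rest on plate z-scores that were not deposited; ratio present for only 364 wells.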 The numbers tell different reagents against one gene apart. The record does not give: the dose of the treatment.

Aim: 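Knock-downs reducing store-operated calcium influx in Drosophila cells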 (primary screen)
Cell system: Drosophila S2R+ cells
Reagents: long dsRNA against Drosophila genes, about 0.25 µg dsRNA per well, roughly 10,000 cells
Time to read-out: 5 days of knock-down before the calcium assay
Challenge: thapsigargin (SERCA pump blocker) to empty calcium stores; entry signal taken 4 min after adding it
Measurement: 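Duplicate raw fluo-4 intensities per well from a plate reader, at rest and four minutes after thapsigargin emptied calcium stores; entry-to-rest ratio filled for only some wells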
Scale: calcium entry signal: higher = stronger calcium signal after store depletion; resting calcium signal: higher = higher resting calcium signal
Call rule: 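Hit if the duplicate-averaged plate z-score for entry over resting signal is under −3; wells with weak total dye signal (Fmax z < −2) or more than 5 off-targets removed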
Meaning of the calls: active = strongly reduced calcium entry; inactive = no strong reduction

| gene | dsRNA no. | calcium entry signal, replicate 1 (fluorescence units) | calcium entry signal, replicate 2 (fluorescence units) | resting calcium signal, replicate 1 (fluorescence units) | resting calcium signal, replicate 2 (fluorescence units) | activity call |
| --- | --- | --- | --- | --- | --- | --- |
| unc80 | 1 | 2.81e7 | 3.84e7 | 1.45e7 | 1.63e7 | inactive |
| CG15773 | 1 | 3.11e7 | 4.71e7 | 1.54e7 | 2.02e7 | inactive |
| CG6985 | 1 | 4.26e7 | 3.74e7 | 1.98e7 | 1.83e7 | inactive |
| CG1275 | 1 | 4.29e7 | 4.11e7 | 1.96e7 | 2.01e7 | inactive |
| CG11902 | 1 | 2.74e7 | 3.08e7 | 1.54e7 | 1.58e7 | inactive |
| ND-20L | 1 | 3.08e7 | 4.55e7 | 1.60e7 | 1.98e7 | inactive |
| Cdk2 | 1 | 3.67e7 | 3.46e7 | 1.98e7 | 1.71e7 | inactive |
| CG6055 | 1 | 4.08e7 | 3.84e7 | 2.01e7 | 1.67e7 | inactive |
| CG32371 | 1 | 3.29e7 | 5.33e7 | 1.70e7 | 2.69e7 | inactive |
| Rpt2 | 1 | 1.67e7 | 1.55e7 | 1.36e7 | 1.15e7 | inactive |
| CG6126 | 1 | 5.44e7 | 2.49e7 | 2.40e7 | 1.18e7 | inactive |
| CG15870 | 1 | 2.45e7 | 2.72e7 | 1.26e7 | 1.29e7 | inactive |
| Piezo | 1 | 4.53e7 | – | 2.57e7 | – | inactive |
| Piezo | 2 | 3.33e7 | 4.61e7 | 1.55e7 | 1.87e7 | inactive |
| Las | 1 | 4.28e7 | 4.78e7 | 1.90e7 | 3.23e7 | inactive |
| CG18094 | 1 | 4.82e7 | 4.83e7 | 2.39e7 | 2.15e7 | inactive |
| FucTB | 1 | 2.86e7 | 4.61e7 | 1.40e7 | 1.86e7 | inactive |
| Shrm | 1 | 2.35e7 | 3.03e7 | 1.24e7 | 1.34e7 | inactive |
| Shrm | 2 | 2.10e7 | 2.58e7 | 1.08e7 | 1.23e7 | inactive |
| Shrm | 3 | 4.18e7 | 4.71e7 | 1.75e7 | 2.10e7 | inactive |
| Shrm | 4 | 5.77e7 | 3.41e7 | 2.71e7 | 1.31e7 | inactive |
| Mrp5 | 1 | 3.83e7 | 4.22e7 | 4.57e7 | 1.98e7 | inactive |
| Mrp5 | 2 | 4.47e7 | 4.49e7 | 4.17e7 | 1.95e7 | inactive |
| Obp19b | 1 | 4.67e7 | 5.04e7 | 2.27e7 | 1.87e7 | inactive |

Entries above whose target name starts with S or s (4):
| gene | dsRNA no. | calcium entry signal, replicate 1 (fluorescence units) | calcium entry signal, replicate 2 (fluorescence units) | resting calcium signal, replicate 1 (fluorescence units) | resting calcium signal, replicate 2 (fluorescence units) | activity call |
| --- | --- | --- | --- | --- | --- | --- |
| Shrm | 1 | 2.35e7 | 3.03e7 | 1.24e7 | 1.34e7 | inactive |
| Shrm | 2 | 2.10e7 | 2.58e7 | 1.08e7 | 1.23e7 | inactive |
| Shrm | 3 | 4.18e7 | 4.71e7 | 1.75e7 | 2.10e7 | inactive |
| Shrm | 4 | 5.77e7 | 3.41e7 | 2.71e7 | 1.31e7 | inactive |
